Experimental data taken from publication PMC7819943, “Rice protein-binding microarrays: a tool to detect cis-acting elements near promoter regions in rice”.
This is one part of the list.

The chains behind the UniProt entries cited, without tags or fusion partners.
UniProt Q0JBA9, entry or part of it: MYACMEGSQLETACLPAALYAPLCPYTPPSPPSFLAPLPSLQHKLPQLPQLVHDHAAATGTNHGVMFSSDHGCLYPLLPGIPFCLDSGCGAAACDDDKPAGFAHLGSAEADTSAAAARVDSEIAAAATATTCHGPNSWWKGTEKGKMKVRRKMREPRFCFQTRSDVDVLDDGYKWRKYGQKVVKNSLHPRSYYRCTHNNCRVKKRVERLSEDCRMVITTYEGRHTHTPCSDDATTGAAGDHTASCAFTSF

target: OsWRKY34 (Oryza sativa, UniProt Q0JBA9 1-250); assay: protein-binding microarray (RPBM); PBS, 2% BSA, 51.3 ng/ul salmon testes DNA, 50 uM zinc acetate, 200 nM TF, 25 C, 1 h; high values mean tight binding; conditions: protein: recombinant; tags: N-terminal polyhistidine and DsRed monomer fusion (pET32a); label: CyDye5-dUTP incorporated in the synthesized complementary strand; 3' TTTTT single-stranded linker to array surface; dsDNA, one strand shown
Procedure, shortened: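 For the binding signal, per-feature fluorescence intensity was read in arbitrary units on an Axon 4000B scanner. Before scanning, a 2% BSA-blocked custom Agilent array made double-stranded with Cy5-dUTP was washed after 1 h at 25 °C with 200 nM protein and 50 µM zinc acetate. The proteins were Ni–NTA-purified transcription factors with N-terminal polyhistidine and DsRed fusions, expressed in E. coli BL21-CodonPlus.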

First: CTCCCATCCGATCACCTCCGTCCCGAACGTTATCTCTAACCGGAGTCACCTAGTGCAG
Second: CGTCGGTAGGGAGGAGGAGGAGGAGGAGGTGGTGGTGGTGCGGAGTCACCTAGTGCAG
The binding signal of the first is lower: 9830 fluorescence intensity (a.u.) for the first, 12000 fluorescence intensity (a.u.) for the second.

First: TGCATCTTCTCTTCTACCATTCTTGCTTTCTCCTTGTAGTCGGAGTCACCTAGTGCAG
Second: TGCTGGGTATTCTTTTTTAGGTGTTGTCAAGTTGTTTTTACGGAGTCACCTAGTGCAG
The binding signal of the first is higher: 14700 fluorescence intensity (a.u.) for the first, 9660 fluorescence intensity (a.u.) for the second.

Compared with “TTGTGAGGATTTTTTACTTGTGTTGTGTTGTGTACTTGAACGGAGTCACCTAGTGCAG”, “TAGCTCATATTTTGGCCCCTTCATTTCGCTGCCCTGTAAACGGAGTCACCTAGTGCAG” is higher in binding signal: 8760 fluorescence intensity (a.u.) for the first, 9320 fluorescence intensity (a.u.) for the second.

First: TCTTGATGGGATTTTTTATACGACTCCTTCTGTATTCTCACGGAGTCACCTAGTGCAG
Second: GACCGAATGCCCACCCCTATCTACGGGCTTGATAATATCACGGAGTCACCTAGTGCAG
The binding signal of the first is lower: 9980 fluorescence intensity (a.u.) for the first, 10600 fluorescence intensity (a.u.) for the second.

First: TATATGTAAGCTACTTTTGTCCTATACATAAATTACTTTTCGGAGTCACCTAGTGCAG
Second: CTTACGATTGAGACATGCCAGCTACTACTCCCAATTCTTGCGGAGTCACCTAGTGCAG
The binding signal of the first is higher: 8580 fluorescence intensity (a.u.) for the first, 8460 fluorescence intensity (a.u.) for the second.

First: CTGTATCCCCATTCGCTGTCAAAATTCAATTCACTGTCTTCGGAGTCACCTAGTGCAG
Second: GGTATTTTAGTCTTCTGCACATCCATCGGTACGTTCTTTCCGGAGTCACCTAGTGCAG
The binding signal of the first is lower: 9640 fluorescence intensity (a.u.) for the first, 15600 fluorescence intensity (a.u.) for the second.

First: TCATCTCTCGTTCTTACACTATTACATCTTACAAATCAAACGGAGTCACCTAGTGCAG
Second: CATCCTACTCCCTCCGTCCCACAAAACCTGCCGTTTCACCCGGAGTCACCTAGTGCAG
The binding signal of the first is higher: 9340 fluorescence intensity (a.u.) for the first, 8520 fluorescence intensity (a.u.) for the second.

Compared with “CGCACTTACACACACATTCGCTCCGGAGCGCAGTACGTGACGGAGTCACCTAGTGCAG”, “ACCCTCCTCCCAACCACCCACGCCGTCCGATCCCCATCCGCGGAGTCACCTAGTGCAG” is higher in binding signal: 8580 fluorescence intensity (a.u.) for the first, 8880 fluorescence intensity (a.u.) for the second.

Compared with “TACCCCTCATGTTTTTCTTTCTTTATTTTTACAGCGGTTACGGAGTCACCTAGTGCAG”, “TAAACACCACCTTTGTCTCTTCTTCTTCTTCCGCCGGCTTCGGAGTCACCTAGTGCAG” is higher in binding signal: 8680 fluorescence intensity (a.u.) for the first, 10200 fluorescence intensity (a.u.) for the second.

First: AGCTGACTTTTGCTTCTTACTCCTACTACTACTACTTGTCCGGAGTCACCTAGTGCAG
Second: ACGAACTCCTCAAATATTGCGAATGCTTGTACTACGACTCCGGAGTCACCTAGTGCAG
The binding signal of the first is higher: 11000 fluorescence intensity (a.u.) for the first, 8190 fluorescence intensity (a.u.) for the second.

Compared with “TAATCGCTAATCCTCGCGGTCCATCTGTACTGTACGCTTACGGAGTCACCTAGTGCAG”, “TTTTTTTTCTTTTCTTCTGTTCCTGAATACTCTGTAGTTTCGGAGTCACCTAGTGCAG” is lower in binding signal: 8670 fluorescence intensity (a.u.) for the first, 8470 fluorescence intensity (a.u.) for the second.

Going from “ATTAACTCCCTCTCCCGCTGCTCCACTCCACTCCCACACCCGGAGTCACCTAGTGCAG” to “GCACATGTTTGACCGTTCGTCTTATTCAAAAATTTTTGTGCGGAGTCACCTAGTGCAG”, the binding signal rises from 8110 fluorescence intensity (a.u.) to 11100 fluorescence intensity (a.u.).

First: TGATCAGATCCCTCTCTATCTCGTTCCATTTCTATTATCTCGGAGTCACCTAGTGCAG
Second: CCGTTTTTTAATAGATAACGCTGTTGACTTTTTCTTATATCGGAGTCACCTAGTGCAG
The binding signal of the first is lower: 9020 fluorescence intensity (a.u.) for the first, 11200 fluorescence intensity (a.u.) for the second.

Going from “GCTTGCACCATGCCCGTTGCCTATTTGGCACTCCATGCCCCGGAGTCACCTAGTGCAG” to “ATACTTCGTTAGGTCCTCTTGGTCAACCCGATATTGACAGCGGAGTCACCTAGTGCAG”, the binding signal rises from 8240 fluorescence intensity (a.u.) to 9780 fluorescence intensity (a.u.).

Going from “TATGTTTTTCCTATTCCTCCGTTTTTCCATTCCTATGATTCGGAGTCACCTAGTGCAG” to “CTCGCGGGAGGGTGGGGTTGGAAGTTTCCTAGGGGCCCACCGGAGTCACCTAGTGCAG”, the binding signal rises from 9810 fluorescence intensity (a.u.) to 9870 fluorescence intensity (a.u.).

Compared with “AAGTGTTTTCGTTTTTTTTTCATTCGCTATTATTTTCTTTCGGAGTCACCTAGTGCAG”, “TACACCATTTTCTCTCACTTACATGTAGGCCCTACATATTCGGAGTCACCTAGTGCAG” is lower in binding signal: 9660 fluorescence intensity (a.u.) for the first, 9050 fluorescence intensity (a.u.) for the second.

Compared with “TCGCAGTTTCCTGACGGAATCTGTAATTTGTTTTGTTATTCGGAGTCACCTAGTGCAG”, “GCGCTCCGTGTCCTCCTCGCGTCCTAATCCACACGTGTTCCGGAGTCACCTAGTGCAG” is higher in binding signal: 8310 fluorescence intensity (a.u.) for the first, 12100 fluorescence intensity (a.u.) for the second.

Compared with “GCCCCGACAAAGGCCGACGTCTCCTGCGCGGCCACGTCTCCGGAGTCACCTAGTGCAG”, “CGTCGCCGCCCACCAAACCCGATCCCACCGCGCCGCGATGCGGAGTCACCTAGTGCAG” is higher in binding signal: 8020 fluorescence intensity (a.u.) for the first, 11100 fluorescence intensity (a.u.) for the second.

Going from “CGACTTCCTTCTGCTCCTCTTTTTTCGTCGTCCTCCTCTCCGGAGTCACCTAGTGCAG” to “CAGAGTTTTGTTTATGTTACATGCTTCACCATTCAGAAAGCGGAGTCACCTAGTGCAG”, the binding signal rises from 8260 fluorescence intensity (a.u.) to 8470 fluorescence intensity (a.u.).

First: ACACGGTCTCTGTCCTACCACAACCTGAACCGTATACTTACGGAGTCACCTAGTGCAG
Second: ACGCCCCATGTAAACATCTTCGATCACGTTATAAATTTTACGGAGTCACCTAGTGCAG
The binding signal of the first is lower: 8190 fluorescence intensity (a.u.) for the first, 8270 fluorescence intensity (a.u.) for the second.

Going from “AACATTTTCCTTCCGCTCTACTCAATCCTATCCATCACATCGGAGTCACCTAGTGCAG” to “GATTTTGTTCTAGGAACATATATACGTCACTTTGTCATCTCGGAGTCACCTAGTGCAG”, the binding signal falls from 9020 fluorescence intensity (a.u.) to 8180 fluorescence intensity (a.u.).
